In PMC10517925:
No constants are given. Whether binding was seen depends on the method and setting. In cells and extracts the contact can be indirect. Some binding calls cover weakened binding; strength is not graded here.

The chains behind the UniProt entries cited, without tags or fusion partners.
UniProt Q9QZL0: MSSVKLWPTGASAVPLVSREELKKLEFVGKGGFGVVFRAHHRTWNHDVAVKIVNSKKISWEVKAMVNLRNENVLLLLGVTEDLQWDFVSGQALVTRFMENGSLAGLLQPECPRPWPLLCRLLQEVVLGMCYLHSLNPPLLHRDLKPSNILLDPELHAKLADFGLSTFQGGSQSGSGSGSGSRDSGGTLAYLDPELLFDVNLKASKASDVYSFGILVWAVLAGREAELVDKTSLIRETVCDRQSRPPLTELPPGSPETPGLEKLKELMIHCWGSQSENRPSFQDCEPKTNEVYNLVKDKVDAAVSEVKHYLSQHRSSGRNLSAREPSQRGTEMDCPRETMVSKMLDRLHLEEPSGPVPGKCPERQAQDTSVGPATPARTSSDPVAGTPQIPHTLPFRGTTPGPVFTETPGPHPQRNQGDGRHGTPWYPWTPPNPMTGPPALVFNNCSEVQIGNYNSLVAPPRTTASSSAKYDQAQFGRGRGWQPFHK

What was measured:
Mouse RIPK3-flag (mouse) = Mouse RIPK3-flag (mouse) (UniProt Q9QZL0); assay: co-IP; anti-flag M2 beads overnight with the soluble fraction of lysates (20 mM Tris-HCl pH 7.5, 120 mM NaCl, 1% Triton X-100) of mouse RIPK3-flag reconstituted RIPK3-KO L929 cells treated with TSZ for indicated times; cells pretreated 1 h with vehicle, Ibrutinib (15 uM) or Quizartinib (2 uM); immunoblot
[1] = target: Mouse RIPK3-flag (mouse), Q9QZL0; assay: as above; details: remark: other sources report otherwise

B1: mixed lineage kinase domain-like protein (MLKL), mouse (protein, UniProt Q9D2Y4 1-472)
chain: MDKLGQIIKLGQLIYEQCEKMKYCRKQCQRLGNRVHGLLQPLQRLQAQGKKNLPDDITAALGRFDEVLKEANQQIEKFSKKSHIWKFVSVGNDKILFHEVNEKLRDVWEELLLLLQVYHWNTVSDVSQPASWQQEDRQDAEEDGNENMKVILMQLQISVEEINKTLKQCSLKPTQEIPQDLQIKEIPKEHLGPPWTKLKTSKMSTIYRGEYHRSPVTIKVFNNPQAESVGIVRFTFNDEIKTMKKFDSPNILRIFGICIDQTVKPPEFSIVMEYCELGTLRELLDREKDLTMSVRSLLVLRAARGLYRLHHSETLHRNISSSSFLVAGGYQVKLAGFELSKTQNSISRTAKSTKAERSSSTIYVSPERLKNPFCLYDIKAEIYSFGIVLWEIATGKIPFEGCDSKKIRELVAEDKKQEPVGQDCPELLREIINECRAHEPSQRPSVDGRSLSGRERILERLSAVEESTDKKV
Question: How did the binding (Mouse RIPK3-flag (mouse)) turn out when B1 was run?
Answer: The binding was “binds”.

B2: receptor-interacting serine/threonine kinase 1 (RIPK1), mouse, Q60855 1-656 (protein)
chain: MQPDMSLDNIKMASSDLLEKTDLDSGGFGKVSLCYHRSHGFVILKKVYTGPNRAEYNEVLLEEGKMMHRLRHSRVVKLLGIIIEEGNYSLVMEYMEKGNLMHVLKTQIDVPLSLKGRIIVEAIEGMCYLHDKGVIHKDLKPENILVDRDFHIKIADLGVASFKTWSKLTKEKDNKQKEVSSTTKKNNGGTLYYMAPEHLNDINAKPTEKSDVYSFGIVLWAIFAKKEPYENVICTEQFVICIKSGNRPNVEEILEYCPREIISLMERCWQAIPEDRPTFLGIEEEFRPFYLSHFEEYVEEDVASLKKEYPDQSPVLQRMFSLQHDCVPLPPSRSNSEQPGSLHSSQGLQMGPVEESWFSSSPEYPQDENDRSVQAKLQEEASYHAFGIFAEKQTKPQPRQNEAYNREEERKRRVSHDPFAQQRARENIKSAGARGHSDPSTTSRGIAVQQLSWPATQTVWNNGLYNQHGFGTTGTGVWYPPNLSQMYSTYKTPVPETNIPGSTPTMPYFSGPVADDLIKYTIFNSSGIQIGNHNYMDVGLNSQPPNNTCKEESTSRHQAIFDNTTSLTDEHLNPIRENLGRQWKNCARKLGFTESQIDEIDHDYERDGLKEKVYQMLQKWLMREGTKGATVGKLAQALHQCCRIDLLNHLIRASQS
Question: With B2 as the binder, how does the binding [1] read?
Answer: The binding was “binds”.
